Reference: PMC3777911
No constants are given. Whether binding was seen depends on the method and setting. Some results given as binding are weak or reduced against the parent protein; the word gives no strength. For part of these data: Sequences can lack the tags named with a protein.

The chains behind the UniProt entries cited, without tags or fusion partners. Where a name states a change or a piece, a line headed by the entry shows the natural chain unless it says otherwise. A line that says so, or that is headed by a name, gives the form on record, which may keep a tag or linker.
UniProt P55735: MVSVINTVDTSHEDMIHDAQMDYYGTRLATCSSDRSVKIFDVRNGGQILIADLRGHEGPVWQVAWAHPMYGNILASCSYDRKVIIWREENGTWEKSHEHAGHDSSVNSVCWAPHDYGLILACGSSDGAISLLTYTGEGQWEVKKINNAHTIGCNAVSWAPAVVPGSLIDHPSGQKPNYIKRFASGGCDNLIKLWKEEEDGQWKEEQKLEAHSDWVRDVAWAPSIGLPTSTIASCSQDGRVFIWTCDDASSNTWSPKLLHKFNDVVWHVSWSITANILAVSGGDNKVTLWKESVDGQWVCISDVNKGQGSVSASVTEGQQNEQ
UniProt Q15436: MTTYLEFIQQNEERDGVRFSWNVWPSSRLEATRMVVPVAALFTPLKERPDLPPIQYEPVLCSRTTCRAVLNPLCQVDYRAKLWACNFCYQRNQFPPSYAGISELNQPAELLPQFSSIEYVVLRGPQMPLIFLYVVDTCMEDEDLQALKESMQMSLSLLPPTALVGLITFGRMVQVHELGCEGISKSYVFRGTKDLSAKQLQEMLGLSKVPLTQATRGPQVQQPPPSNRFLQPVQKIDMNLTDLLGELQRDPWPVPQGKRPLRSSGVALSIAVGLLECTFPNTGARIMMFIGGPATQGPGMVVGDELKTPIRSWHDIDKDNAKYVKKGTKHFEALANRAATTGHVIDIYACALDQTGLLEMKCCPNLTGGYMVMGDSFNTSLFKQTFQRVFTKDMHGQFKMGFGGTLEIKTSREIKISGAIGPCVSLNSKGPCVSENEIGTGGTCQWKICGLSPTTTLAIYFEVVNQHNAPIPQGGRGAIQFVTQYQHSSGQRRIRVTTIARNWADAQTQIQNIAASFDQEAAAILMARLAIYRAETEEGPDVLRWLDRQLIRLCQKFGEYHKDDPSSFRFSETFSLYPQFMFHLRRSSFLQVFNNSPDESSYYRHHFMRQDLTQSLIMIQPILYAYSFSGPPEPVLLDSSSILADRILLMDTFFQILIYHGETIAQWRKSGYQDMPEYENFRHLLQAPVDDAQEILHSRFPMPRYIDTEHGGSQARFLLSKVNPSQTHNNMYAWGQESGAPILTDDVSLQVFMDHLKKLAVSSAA
UniProt P12815: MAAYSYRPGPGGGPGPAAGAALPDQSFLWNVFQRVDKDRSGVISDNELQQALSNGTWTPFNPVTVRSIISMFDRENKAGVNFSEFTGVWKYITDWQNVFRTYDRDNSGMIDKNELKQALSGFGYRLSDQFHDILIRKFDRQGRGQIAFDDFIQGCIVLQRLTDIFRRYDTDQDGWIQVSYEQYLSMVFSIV
ALG-2.1, splice variant of ALG-2 (P12815-2, form named): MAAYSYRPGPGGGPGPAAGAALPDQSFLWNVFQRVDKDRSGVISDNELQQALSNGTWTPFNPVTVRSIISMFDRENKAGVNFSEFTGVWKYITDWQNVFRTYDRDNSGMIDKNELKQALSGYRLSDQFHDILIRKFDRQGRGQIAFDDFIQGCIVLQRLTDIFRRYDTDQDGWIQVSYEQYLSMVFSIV

Columns and labels:
[1] = target: T1, His-Sec24D (UniProt O94855); experiment: co-purification (Ni-NTA affinity chromatography); the two chains co-expressed in ES-SF9 cells; complex purified on Ni-NTA through the His tag of Sec31A or Sec24; purified Sec13/Sec31A collected again on Ni beads, SyproRed
T1 sequence: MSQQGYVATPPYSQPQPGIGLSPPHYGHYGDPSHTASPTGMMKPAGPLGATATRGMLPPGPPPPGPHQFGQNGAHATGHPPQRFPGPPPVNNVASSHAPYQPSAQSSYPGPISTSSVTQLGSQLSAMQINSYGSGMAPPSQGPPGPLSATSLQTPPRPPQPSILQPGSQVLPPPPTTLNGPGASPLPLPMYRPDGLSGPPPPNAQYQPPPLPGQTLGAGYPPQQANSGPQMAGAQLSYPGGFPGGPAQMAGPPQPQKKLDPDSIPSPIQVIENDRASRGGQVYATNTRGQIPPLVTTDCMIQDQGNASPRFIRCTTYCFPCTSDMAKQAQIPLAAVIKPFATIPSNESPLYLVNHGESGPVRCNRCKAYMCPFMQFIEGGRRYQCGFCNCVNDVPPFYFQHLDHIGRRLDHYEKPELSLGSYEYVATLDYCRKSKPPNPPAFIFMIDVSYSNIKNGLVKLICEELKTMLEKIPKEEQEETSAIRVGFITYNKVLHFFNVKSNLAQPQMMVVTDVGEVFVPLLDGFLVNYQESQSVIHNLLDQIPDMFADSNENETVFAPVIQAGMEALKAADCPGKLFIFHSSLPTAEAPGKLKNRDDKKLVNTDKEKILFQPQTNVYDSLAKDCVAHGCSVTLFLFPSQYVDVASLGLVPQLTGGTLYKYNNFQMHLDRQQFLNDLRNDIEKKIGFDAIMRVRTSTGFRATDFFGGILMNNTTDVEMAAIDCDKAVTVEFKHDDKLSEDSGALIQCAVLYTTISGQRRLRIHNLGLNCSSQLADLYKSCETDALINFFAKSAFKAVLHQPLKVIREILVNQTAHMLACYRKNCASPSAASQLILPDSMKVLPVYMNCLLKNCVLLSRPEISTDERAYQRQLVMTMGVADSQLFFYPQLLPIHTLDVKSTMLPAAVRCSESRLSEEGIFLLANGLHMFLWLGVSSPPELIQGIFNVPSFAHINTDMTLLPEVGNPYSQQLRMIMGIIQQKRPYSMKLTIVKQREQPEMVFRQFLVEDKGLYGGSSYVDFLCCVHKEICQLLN

[2] = target: HA-Sec13/His-Sec31AdelABD complex (Sec31A lacking the ALG-2 binding domain, amino acids 827-852) (UniProt P55735); experiment: pull-down; His-tagged Sec31A (Sec13/Sec31A) immobilised on Nickel beads, recombinant ALG-2 versions added, in the presence of Ca2+; eluates on SDS-PAGE, SyproRed; ratios from fluorescence intensity; both purified
[3] = target: HA-Sec13/His-Sec31A complex (outer COPII coat), wild type (UniProt P55735); experiment: as above

## Flag-Sec23A (from UniProt Q15436 1-765)
[1]
  binding: binds

## ALG-2 (product of the apoptosis linked gene-2), recombinant wild type (from UniProt P12815 1-191)
[2]
  binding: no binding

## ALG-2.1, splice variant of ALG-2 (from UniProt P12815-2 1-189)
[3]
  binding: binds
